The campaign covered roughly 300,000 compounds. About 5,400 (1.8%) were called active. Inconclusive means that the source gave no clear call. Such entries were picked first, then a sample of the others. The call rests on the fitted dose curve; tested in HEK293 cells. Where the call is inconclusive, the potency comes from a doubtful curve fit. Starred links: 1 amine or outer side, 2 acyl side, 3 side chain; linkers in the order of their positions; H or OH if unused. Non-standard residues stand in square brackets, D forms with d. Residues, ends and D or L forms follow the SMILES beside them. ξ: configuration not given here. ξR = N=C(N)NCCCC(N)C(=O)O; ξF = NC(Cc1ccccc1)C(=O)O; CO = O=C([*:1])[*:2]
assay: qHTS for inhibitors of binding or entry into cells for Marburg Virus; settings: Marburg virus pseudotyped entry inhibition, cell reporter; series mostly up to 37.8 µM
Potency means the concentration at half of the fitted maximal effect.

| SMILES | Potency |
| --- | --- |
| CS(=O)(=O)Nc1ccc(C(=O)Nc2ccccc2C(=O)NCc2ccco2)cc1 | inactive |
| CC(=O)Nc1ccc(NC(=O)C/C(C)=N/NC(=O)C(=O)Nc2ccc(C)c(Cl)c2)cc1 | inactive |
| CSc1cccc(NC(=O)C2CCCN(S(=O)(=O)c3ccc(F)cc3)C2)c1 (stereo not given) | inconclusive: 35.5 µM [inhibitor, partial curve, poor fit] |
| COc1ccc(OC)c(CCNC(=O)C(C)n2c(C)c3cnn(-c4ccccc4)c(=O)c3c2C)c1 (stereo not given) | inactive |
| O=C(c1ccccc1)c1cc2ccccc2o1 | inconclusive: 28.2 µM [activator, partial curve, poor fit] |
| COC(=O)c1c(O)c2ccccc2[nH]c1=O | inactive |
| C[C@@H](NC(=O)[C@@H]1Cc2ccccc2CN1)C(=O)NC1CCCCC1 | inconclusive: 3.55 µM [activator, full curve, poor fit] |
| CCOC(=O)c1sc2ccccc2c1NC(=O)c1coc2ccccc2c1=O | inconclusive: 35.5 µM [activator, single point] |
| CC1CN(c2nc3ccccc3nc2C(C#N)C(=O)NCc2ccc3c(c2)OCO3)CC(C)O1 (stereo not given) | inactive |
| Cc1ccc(O)c(NC(=S)NC(=O)c2ccc(-c3ccc(Cl)cc3)o2)c1 | inconclusive: 2 µM [activator, single point] |
| O=C(OCc1nc2scc(-c3ccccc3)c2c(=O)[nH]1)c1cc(Cl)ccc1[N+](=O)[O-] | inconclusive: 0.251 µM [activator, full curve, poor fit] |
| CCCCCn1c(-c2cccc(C)c2)nc2ccccc21 | inconclusive: 35.5 µM [inhibitor, single point] |
| Cc1ccccc1OCC(=O)N/N=C/c1ccc(N(C)C)cc1 | inconclusive: 2.82 µM [inhibitor, full curve, poor fit] |
| CN(C)C1(CNC(=O)COc2ccc(C(C)(C)C)cc2)CCCCC1 | inconclusive: 35.5 µM [inhibitor, single point] |
| [O-][n+]1ccccc1/C=C/c1ccccc1 | inconclusive: 0.316 µM [inhibitor, partial curve, poor fit] |
| CC(C)(C)C(=O)N1CCN(c2ccc(Cl)cc2[N+](=O)[O-])CC1 | inconclusive: 35.5 µM [activator, single point] |
| COc1ccc(/C=N\NC(=O)COc2ccc(Cl)cc2Cl)c(C(=O)O)c1OC | inactive |
| CCCCCn1c(CNC(=O)c2ccc(F)cc2)nc2ccccc21 | inconclusive: 11.2 µM [inhibitor, partial curve, poor fit] |
| COC(=O)/C=C/C(=O)Nc1cccc(C(F)(F)F)c1 | inconclusive: 17.8 µM [inhibitor, partial curve, poor fit] |
| COc1ccc(NS(=O)(=O)c2ccc(NC(=S)NC(=O)C(C)C)cc2)cc1 | inconclusive: 35.5 µM [inhibitor, single point] |
| COC(=O)C1=C(C)N=C2S[C@H](C)C(=O)N2[C@@H]1c1ccc(C(=O)OC)cc1 | inconclusive: 17.8 µM [inhibitor, partial curve, poor fit] |
| CCCOc1cccc(CN2CCCC[C@H]2c2cccnc2)c1 | inconclusive: 16.4 µM [inhibitor, single point] |

| SMILES | Potency |
| --- | --- |
| O=C(c1cc(-c2ccc(F)cc2)on1)N1CCCCCC1 | inconclusive: 5.62 µM [inhibitor, partial curve, poor fit] |
| O=C(NC1CCN(Cc2ccccc2)CC1)c1cc(S(=O)(=O)Nc2ccc(F)cc2)ccc1Cl | inconclusive: 7.94 µM [inhibitor, partial curve, poor fit] |
| O=C(NC(C(=O)N/N=C/c1cccnc1)c1n[nH]c(=O)c2ccccc12)c1ccccc1 (stereo not given) | inactive |
| Cc1[nH]n(-c2ccccc2)c(=O)c1/C=N/NC(=O)COc1ccccc1[N+](=O)[O-] | inconclusive: 29.1 µM [inhibitor, single point] |
| O=C(Nc1nc2ccccc2[nH]1)c1cccc(Br)c1 | inconclusive: 35.5 µM [inhibitor, single point] |
| O=C(COc1cccc(Br)c1)N/N=C/C(=O)c1ccccc1 | inconclusive: 6.31 µM [inhibitor, single point] |
| Cc1nn(C)c(C)c1S(=O)(=O)N1CCCC(C(=O)NC2CCCCCC2)C1 (stereo not given) | inactive |
| O=C(O)CCC(=O)c1cccc2ccccc12 | inconclusive: 7.3 µM [activator, partial curve] |
| CSc1nc2c(c(=O)n1-c1ccc(F)cc1)SCC2 | inactive |
| O=C(N/N=C/c1cc2c(cc1Br)OCO2)C1COc2ccccc2O1 (stereo not given) | inconclusive: 0.562 µM [inhibitor, single point] |
| CCCN(CCC)CCNC(=S)Nc1ccc2nc3n(c(=O)c2c1)CCCCC3 | inconclusive: 35.5 µM [inhibitor, single point] |
| Cc1ccc(NC(=O)c2cncc(Br)c2)c(O)c1 | inconclusive: 3.16 µM [activator, single point] |
| COc1cc(C(=O)NN2C(=O)NC3(CCC(C)CC3)C2=O)ccc1OC(F)F (stereo not given) | inconclusive: 3.55 µM [activator, single point] |
| Cc1ccn(-c2ccc(NC(=O)c3cccs3)cc2)n1 | inconclusive: 7.08 µM [inhibitor, partial curve, poor fit] |
| N=c1cc(C2(O)CCCCC2)n2c(nc3ccccc32)s1 | active: 5.8 µM |
| Cc1ccc(NC(=O)COC(=O)[C@H](C)NC(N)=O)c(C)c1 | inactive |
| Cc1ccc(OCCCCN(C)Cc2ccccc2)c(Br)c1 | inconclusive: 18.4 µM [inhibitor, single point] |
| Cc1cc(NC(=O)COc2ccc(N(C)S(=O)(=O)c3ccccc3)cc2)no1 | inactive |
| COc1ccc(CCNC(=O)COc2ccc(S(=O)(=O)NC(C)C)cc2Cl)cc1OC | inconclusive: 0.184 µM [activator, full curve, poor fit] |
| CCOP(=O)(OCC)C(Nc1ccccn1)c1ccccc1 (stereo not given) | inactive |
| Cc1ccccc1NC(=O)CN(C)S(=O)(=O)c1cccs1 | inactive |
| CCn1c2ccccc2c2cc(NC(=O)CNCC3CCCO3)ccc21 (stereo not given) | inconclusive: 5.62 µM [inhibitor, single point] |

A portion from further up:

| SMILES | Potency |
| --- | --- |
| Cc1nn(C)c(C)c1S(=O)(=O)N1CCCC(C(=O)NC2CCCCCC2)C1 (stereo not given) | inactive |
| O=C(O)CCC(=O)c1cccc2ccccc12 | inconclusive: 7.3 µM [activator, partial curve] |
| CSc1nc2c(c(=O)n1-c1ccc(F)cc1)SCC2 | inactive |
| O=C(N/N=C/c1cc2c(cc1Br)OCO2)C1COc2ccccc2O1 (stereo not given) | inconclusive: 0.562 µM [inhibitor, single point] |

The results go on:

| SMILES | Potency |
| --- | --- |
| COC(=O)c1c(C)oc2ccc(N(C(=O)c3ccncc3)S(=O)(=O)c3ccc4ccccc4c3)cc12 | inconclusive: 35.5 µM [inhibitor, single point] |
| CCOC(=O)CCC(NC(=O)c1ccccc1C(=O)NC(CCC(=O)OCC)C(=O)OCC)C(=O)OCC (stereo not given) | inconclusive: 2.51 µM [inhibitor, partial curve, poor fit] |
| Cc1ccc(C(=O)CC2C(=O)N(c3ccccc3)C(=S)N2c2ccccc2)cc1 (stereo not given) | inconclusive: 11.2 µM [inhibitor, partial curve] |
| Cc1ccc(C)c(S(=O)(=O)N2CCN(C(=O)c3ccc(OCc4c(C)noc4C)cc3)CC2)c1 | inconclusive: 28.2 µM [inhibitor, single point] |
| O=C1ON=C(c2cccc([N+](=O)[O-])c2)/C1=C/c1ccc(O)cc1 | inconclusive: 10 µM [inhibitor, partial curve, poor fit] |
| CCc1nnc(NC(=O)CN2C(=O)N(C)C3(CCCCC3)C2=O)s1 | inconclusive: 7.08 µM [activator, partial curve, poor fit] |
| O=C1CCc2cc(Br)ccc2O1 | inconclusive: 1.78 µM [activator, partial curve, poor fit] |
| Cc1ccc(SCC(=O)OCC(=O)N(C)CC(=O)Nc2ccccc2Cl)cc1C | inconclusive: 5.01 µM [activator, partial curve, poor fit] |
| CC(C)c1ccc(OCc2nc(-c3ccccn3)no2)c(Br)c1 | inconclusive: 1.26 µM [activator, single point] |
| Cc1cccc(C(=O)Nc2cc(OCc3cccc(F)c3)c(Cl)cc2Cl)c1 | inactive |
| CCCCN=C1NN=C(c2ccc3c(c2)OCCO3)CS1 | inconclusive: 7.08 µM [inhibitor, full curve, poor fit] |
| Cc1cc(C)nc(/N=C(\N)N2CCc3ccccc32)n1 | inconclusive: 7.94 µM [inhibitor, partial curve, poor fit] |
| O=c1[nH]c(C2CCCN(S(=O)(=O)c3ccccc3)C2)nc2c1nnn2Cc1ccccc1F (stereo not given) | inactive |
| Nc1nonc1NN=C1CCCCC1 | inactive |
| CN(C)CCCN(C(=O)c1ccc(S(=O)(=O)N(C)C)cc1)c1nc2cc3c(cc2s1)OCO3 | inconclusive: 4.47 µM [inhibitor, full curve, poor fit] |
| C=CCn1c(SCC(=O)c2[nH]c(C)c(C(=O)OC)c2C)nc2scc(-c3ccc(OC)c(OC)c3)c2c1=O | inconclusive: 5.62 µM [inhibitor, single point] |
| CC(C)[C@H](NC(=O)[C@H](CCCN=C(N)N)NC(=O)NC(Cc1ccccc1)C(=O)O)C(=O)NC(C=O)CCCN=C(N)N (stereo partly drawn) ({ξF-CO}-Arg-Val-[ξR]-aldehyde) | inconclusive: 2.91 µM [inhibitor, full curve, poor fit] |
| CCCn1c(N)c(C(=O)CN2CCN(S(=O)(=O)c3cccs3)CC2)c(=O)[nH]c1=O | inconclusive: 6.51 µM [inhibitor, single point] |
| COc1ccccc1CNc1nc2ccccc2n1CCN1CCCCC1 | inconclusive: 9.2 µM [inhibitor, partial curve, poor fit] |
| NC(=O)c1ccsc1NC(=O)COC(=O)c1ccccc1NCc1ccco1 | inactive |
| CCOC(=O)c1ccc(NC(=S)NCc2cccnc2)cc1 | inconclusive: 2 µM [inhibitor, partial curve, poor fit] |
